Here are results for seven compounds from patent US20060159639A1, “Pseudo body odor composition and perfume composition for inhibiting body odor” (priority 2003, published 2006).

The data set is described as follows: Perfume (odor) quality of armpit odor components. The conditions noted are these: odor quality in words.

“Also recorded” adds a separate entry of the source.

On to `CCC[C@@](C)(O)CC(=O)O` [(R)-3-hydroxy-3-methylhexanoic acid], for which the Perfume quality entry was “Cumin spice like odor; also recorded: weaker than racemic body”. Turning to `CCCC(C)=CC(=O)O` [3-methyl-2-hexenoic acid (trans-isomer/cis-isomer = 1/1), 3-methyl-2-hexenoic acid], the Perfume quality result is “Acidic odor stronger than”. `CCCC(C)(O)CC(=O)O` (stereo not shown) [3-hydroxy-3-methylhexanoic acid]: the Perfume quality entry was “Strong armpit like and; also recorded: cumin spice like odor”. As to `CCC/C(C)=C\C(=O)O` [cis-3-methyl-2-hexenoic acid], the Perfume quality result is “Acidic odor”.

`CCC[C@](C)(O)CC(=O)O` [(S)-3-hydroxy-3-methylhexanoic acid]: the Perfume quality entry is on record as “cumin spice like odor; also recorded: Armpit odor like and”. On to `CCCC(C)(O)CC(=O)O` (racemic) [3-hydroxy-3-methylhexanoic acid (racemic body), 3-hydroxy-3-methylhexanoic acid], for which the Perfume quality entry is “Cumin spice like odor; also recorded: like an armpit odor; also recorded: weaker than an S-body”. As for `CCC/C(C)=C/C(=O)O` [trans-3-methyl-2-hexenoic acid], the Perfume quality result is “Acidic odor”.
